Experimental data: the supplement of paper PMC10331698
± gives the standard deviation of the averaged measurements. Most entries show no effect beyond the scatter of the controls.

Legend:
Experiment in all cases: level (log10 ratio to DMSO vehicle control); higher = higher biomarker level / cell amount than vehicle control
[1] = compound: OCCCC(F)(F)C(F)(F)C(F)(F)C(F)(F)C(F)(F)C(F)(F)C(F)(F)C(F)(F)F [3-(Perfluorooctyl)propanol] (in DMSO); settings: 2200 nM
Description: (§1)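 BioMAP Diversity Plus panel of 12 human primary cell co-culture systems (3C, 4H, LPS, SAg, BT, BF4T, BE3C, CASM3C, HDF3CGF, KF3CT, MyoF, Mphg). Compounds were added 1 h before stimulation and left for 24 h (MyoF 48 h; BT 72 h for soluble read-outs or 6 d for IgG). Biomarkers were read by ELISA, cytotoxicity by SRB, PBMC viability and proliferation by Alamar Blue. Each well value was divided by the mean of 8 DMSO control wells on the same plate and log10 transformed; duplicate blinded samples were tested at 4 concentrations.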

[2] = compound: CNS(=O)(=O)C(F)(F)C(F)(F)C(F)(F)C(F)(F)C(F)(F)C(F)(F)C(F)(F)C(F)(F)F [N-Methylperfluorooctanesulfonamide] (in DMSO); settings: 2200 nM
Description: as §1

[3] = compound: FC(F)(F)COC(OCC(F)(F)F)OCC(F)(F)F [tris(Trifluoroethoxy)methane] (in DMSO); settings: 2200 nM
Description: as §1

[4] = compound: OCC(F)(F)OC(F)(F)C(F)(F)OC(F)(F)CO [1H,1H,8H,8H-Perfluoro-3,6-dioxaoctane-1,8-diol] (in DMSO); settings: 2200 nM
Description: as §1

[5] = compound: FC(F)(F)C(F)(F)C(F)(F)C(F)(F)CCI [1H,1H,2H,2H-Perfluorohexyl iodide] (in DMSO); settings: 2200 nM
Description: as §1

[6] = compound: O=S(=O)(O)C(F)(F)C(F)(F)C(F)(F)C(F)(F)F [Perfluorobutanesulfonic acid] (in DMSO)
Description: as §1

[7] = compound: FC(F)(F)C(F)(F)CNCC(F)(F)C(F)(F)F [Bis(1H,1H-perfluoropropyl)amine] (in DMSO); settings: 2200 nM
Description: as §1

[8] = compound: O=C(O)C(F)(OC(F)(F)C(F)(OC(F)(F)C(F)(OC(F)(F)C(F)(F)C(F)(F)F)C(F)(F)F)C(F)(F)F)C(F)(F)F [Perfluoro-(2,5,8-trimethyl-3,6,9-trioxadodecanoic)acid] (in DMSO); settings: 370 nM
Description: as §1

[9] = compound: OCC(F)(F)C(F)(F)C(F)(F)C(F)(F)C(F)(F)C(F)(F)CO [1H,1H,8H,8H-Perfluorooctane-1,8-diol] (in DMSO); settings: 2200 nM
Description: as §1

Perfluorohexanoic acid = compound: O=C(O)C(F)(F)C(F)(F)C(F)(F)C(F)(F)C(F)(F)F [Perfluorohexanoic acid] (in DMSO)
Description: as §1

[10] = compound: OCC(F)(F)C(F)(F)C(F)(F)C(F)F [1H,1H,5H-Perfluoropentanol] (in DMSO); settings: 2200 nM
Description: as §1

[11] = compound: O=C(O)C(F)(F)C(F)(F)C(F)(F)OC(F)(C(F)(F)F)C(F)(F)F [Perfluoro-4-isopropoxybutanoic acid] (in DMSO); settings: 2200 nM
Description: as §1

[12] = compound: C=C(C)C(=O)OCCC(F)(F)C(F)(F)C(F)(F)C(F)(F)C(F)(F)C(F)(F)F [6:2 Fluorotelomer methacrylate] (in DMSO); settings: 2200 nM
Description: as §1

[13] = compound: OCC(F)(F)C(F)(F)C(F)(F)C(F)(F)C(F)(F)C(F)(F)F [6:1 Fluorotelomer alcohol] (in DMSO); settings: 2200 nM
Description: as §1

[14] = compound: O=C(O)C(F)(OC(F)(F)C(F)(F)C(F)(F)F)C(F)(F)F [Ammonium perfluoro-2-methyl-3-oxahexanoate] (in Water)
Description: as §1

[15] = compound: O=C(O)CCC(F)(F)C(F)(F)C(F)(F)F [3:3 Fluorotelomer carboxylic acid] (in DMSO); settings: 2200 nM
Description: as §1

Hexafluoroglutaric acid = compound: O=C(O)C(F)(F)C(F)(F)C(F)(F)C(=O)O [Hexafluoroglutaric acid] (in DMSO)
Description: as §1

Test System	level (log10) [1]	level (log10) [2]	level (log10) [3]	level (log10) [4]	level (log10) [5]	level (log10) ([6]; 2200 nM)	level (log10) ([6]; 6700 nM)	level (log10) ([6]; 20000 nM)	level (log10) ([6]; 60000 nM)	level (log10) [7]	level (log10) [8]	level (log10) [9]	level (log10) (Perfluorohexanoic acid; 2200 nM)	level (log10) (Perfluorohexanoic acid; 6700 nM)	level (log10) (Perfluorohexanoic acid; 20000 nM)	level (log10) (Perfluorohexanoic acid; 60000 nM)	level (log10) [10]	level (log10) [11]	level (log10) [12]	level (log10) [13]	level (log10) ([14]; 2200 nM)	level (log10) ([14]; 6700 nM)	level (log10) ([14]; 20000 nM)	level (log10) ([14]; 60000 nM)	level (log10) [15]	level (log10) (Hexafluoroglutaric acid; 2200 nM)	level (log10) (Hexafluoroglutaric acid; 6700 nM)	level (log10) (Hexafluoroglutaric acid; 20000 nM)	level (log10) (Hexafluoroglutaric acid; 60000 nM)
4H:CD87/uPAR	-0.032 ± 0.013	0.081 ± 0.051	0.0375 ± 0.044	0.001 ± 0.0042	0.017 ± 0.024	0.038 ± 0.09	0.0115 ± 0.052	0.0235 ± 0.022	0.025 ± 0.021	-0.0545 ± 0.011	0.0105 ± 0.066	-0.004 ± 0.021	0.0075 ± 0.011	0.0025 ± 0.042	-0.002 ± 0.011	0.0205 ± 0.039	0.0225 ± 0.021	-0.004 ± 0.014	-0.003 ± 0.073	0.009 ± 0.03	-0.01 ± 0.016	-0.033 ± 0.027	-0.024 ± 0.033	-0.06 ± 0.0014	-0.025 ± 0.011	-0.0185 ± 0.016	-0.046 ± 0.023	-0.027 ± 0.057	-0.005 ± 0.031
4H:CD106/VCAM-1	0.0175 ± 0.0064	0.028 ± 0.0099	-0.01 ± 0.0071	0.002 ± 0.051	-0.0025 ± 0.0035	0 ± 0.0071	-0.024 ± 0.016	-0.029 ± 0.028	0.001 ± 0.033	0.014 ± 0.0099	0.0485 ± 0.044	0.007 ± 0.0085	0.053 ± 0.044	-0.006 ± 0.028	0.0095 ± 0.00071	0.041 ± 0.045	0.0145 ± 0.012	0.0055 ± 0.0064	-0.002 ± 0.0099	0.013 ± 0.051	-0.0365 ± 0.0035	-0.0455 ± 0.005	-0.0365 ± 0.018	-0.037 ± 0.021	0.0065 ± 0.044	0.0045 ± 0.021	-0.005 ± 0.014	-0.005 ± 0.03	-0.0045 ± 0.012
4H:SRB	0.006 ± 0.0085	0.004 ± 0.011	-0.0025 ± 0.005	-0.006 ± 0.033	-0.01 ± 0.0071	0.004 ± 0.0085	0.0005 ± 0.0064	0.002 ± 0.0028	0 ± 0.0099	0.0055 ± 0.011	0.0105 ± 0.019	0.016 ± 0.014	0.0005 ± 0.005	-0.002 ± 0.0057	-0.0105 ± 0.00071	0.0045 ± 0.015	0.0055 ± 0.011	-0.0215 ± 0.0035	0.0005 ± 0.016	0.019 ± 0.031	-0.008 ± 0.016	-0.0075 ± 0.012	-0.018 ± 0.014	-0.0115 ± 0.005	-0.013 ± 0.016	-0.0075 ± 0.013	-0.0005 ± 0.0092	0.003 ± 0.016	0.011 ± 0.034
4H:VEGFR2	0.0155 ± 0.05	-0.0025 ± 0.049	0.007 ± 0.0042	0.0205 ± 0.066	-0.0085 ± 0.097	-0.0095 ± 0.061	-0.049 ± 0.04	-0.0215 ± 0.026	-0.012 ± 0.0071	0.011 ± 0.0099	-0.0005 ± 0.043	0.037 ± 0.025	0.014 ± 0.034	-0.003 ± 0.021	-0.009 ± 0.014	-0.001 ± 0.024	0.058 ± 0.024	0.009 ± 0.034	-0.0145 ± 0.061	0.004 ± 0.064	0.025 ± 0.025	0.0035 ± 0.04	0.007 ± 0.014	0.0095 ± 0.018	-0.003 ± 0.0028	0.003 ± 0.0014	0.0005 ± 0.016	-0.04 ± 0.0099	-0.0095 ± 0.0078
BE3C:CD54/ICAM-1	0.005 ± 0.013	0.024 ± 0.023	-0.0085 ± 0.012	0.0275 ± 0.012	0.021 ± 0.037	-0.0035 ± 0.012	-0.0185 ± 0.0021	-0.009 ± 0.0028	-0.021 ± 0.0057	0.0045 ± 0.03	0.0225 ± 0.044	-0.0105 ± 0.011	0.001 ± 0.0085	0.0065 ± 0.00071	-0.0145 ± 0.0064	-0.014 ± 0.013	0.002 ± 0.025	0.0115 ± 0.035	0.01 ± 0.037	0.002 ± 0.014	-0.004 ± 0.011	-0.007 ± 0.0057	-0.0025 ± 0.0035	-0.016	0.005 ± 0.0085	0.007 ± 0.0042	0.018 ± 0.0042	0.0095 ± 0.018	0.009 ± 0.02
BE3C:CD87/uPAR	0.01 ± 0.054	0.0425 ± 0.023	-0.0015 ± 0.011	0.03 ± 0.017	0.0185 ± 0.042	-0.0315 ± 0.022	-0.035 ± 0.0028	-0.044 ± 0.016	-0.037 ± 0.027	0.0085 ± 0.1	-0.0045 ± 0.016	0.013 ± 0.013	-0.001 ± 0.0057	-0.002 ± 0.0085	-0.0105 ± 0.00071	0.0205 ± 0.00071	0.012 ± 0.025	0.0195 ± 0.047	-0.026 ± 0.093	0.0205 ± 0.0092	0.0245 ± 0.0021	0.011 ± 0.034	0.0215 ± 0.0078	0.027 ± 0.0085	0.0085 ± 0.052	0.0005 ± 0.019	-0.0045 ± 0.0092	-0.01 ± 0.014	-0.0125 ± 0.011
BE3C:CXCL8/IL-8	-0.006 ± 0.04	-0.0195 ± 0.056	0.044 ± 0.088	0.0055 ± 0.0035	0.012 ± 0.03	0.025 ± 0.055	0.0075 ± 0.035	0.013 ± 0.028	0.0005 ± 0.0092	-0.006 ± 0.099	0.068 ± 0.076	0.029 ± 0.02	0.0205 ± 0.036	0.0095 ± 0.042	0.0135 ± 0.00071	0.017 ± 0.021	0.0125 ± 0.037	0.015 ± 0.054	0.05 ± 0.12	0.0205 ± 0.046	0.018 ± 0.037	-0.013 ± 0.071	0.0005 ± 0.011	0.0195 ± 0.011	0.0095 ± 0.013	0 ± 0.0028	-0.011 ± 0.014	-0.0165 ± 0.0064	-0.011 ± 0.02
